{"source": "patent US20250340837A1", "about": "“CELLS” (University of Geneva, priority 2022, published 2025)", "key": {"C57Bl/6 ANPGs": {"system": "C57Bl/6 ANPGs", "assay": "Stemness reprogramming screen with pharmacological modulators plus CHIR99021", "assay_type": "cell-based, mouse", "settings": "30 days, with CHIR99021 3 μM"}, "C57Bl/6 otic progenitors": {"system": "C57Bl/6 otic progenitors", "assay": "Stemness reprogramming and regeneration in hair cell progenitors", "assay_type": "cell-based, mouse", "settings": "30 days, with CHIR99021 3 μM"}}, "note": "For at least one compound, name, drawing or mass did not settle the structure.", "data": [{"smiles": "c1cc(-c2cnn3cc(-c4ccc(OCCN5CCCCC5)cc4)cnc23)ccn1", "note": "[compound 12, Dorsomorphin]", "values": [{"measurement": "stemness reprogramming, average growth (% ANPGs cultured in presence of GF+CHIR)", "setting": "C57Bl/6 ANPGs", "result": "hits"}, {"measurement": "stemness reprogramming, average growth (% otic progenitors cultured in presence of GF+CHIR)", "setting": "C57Bl/6 otic progenitors", "result": "particularly good candidates"}]}]}
